Data as given in PubChem BioAssay AID540276 (National Center for Advancing Translational Sciences (NCATS), 2011).
Hit rate of the full screen: of about 300,000 compounds, about 5,400 (1.8%) were called active. The shares of active, inactive and inconclusive entries below differ from those in the screen. Calls follow the shape of the full dose curve; tested in HEK293 cells. Potencies of inconclusive entries are doubtful fits and often do not repeat.

Test: qHTS for inhibitors of binding or entry into cells for Marburg Virus
Details: Marburg virus pseudotyped entry inhibition, cell reporter; activity change, negative = inhibition: at 37.8 µM (top of the series) unless noted
% is scaled to controls: 0 for no effect and ±100 for the full control effect; potency is read from the fitted curve at half-maximal effect.

| Structure (SMILES) | Potency | activity change, negative = inhibition |
| --- | --- | --- |
| Cc1ccc(CNC(=O)CO/N=C/c2ccc3c(c2)OCO3)cc1 | inactive | – |
| CC(C)(C)c1nnc(NC(=O)COc2ccc3c(c2)OCO3)s1 | inconclusive: 6.31 µM [activator, single point] | – |
| O=C(Nc1cccc2ncccc12)c1ccc(Br)c([N+](=O)[O-])c1 | inconclusive: 17.8 µM [inhibitor, partial curve, poor fit] | – |
| COc1ccc(C(=O)NCc2ccc3c(c2)OCO3)cc1S(=O)(=O)N(C)Cc1ccccc1 | inconclusive: 2.24 µM [inhibitor, partial curve] | – |
| CC(C)(C)NC(=O)CSc1nc(N)c(-c2ccccc2)c(=O)[nH]1 | – | inconclusive: 17.2% [activator] [at 46.1 µM] |
| Cc1ccc(CNC(=O)CN2CCN(Cc3ccc(F)cc3)C2=O)cc1 | inactive | – |
| CCSc1nc(O)c(Cc2ccccc2)c(=O)[nH]1 | inconclusive: 0.0046 µM [inhibitor, full curve, poor fit] | – |
| Cc1ccc(Nc2nc(NCCO)c3ccccc3n2)cc1C | inconclusive: 3.55 µM [inhibitor, partial curve, poor fit] | – |
| Cc1cc2nc(-c3cccc(NC(=O)COc4ccc(Cl)c(C)c4)c3)oc2cc1C | inconclusive: 6.31 µM [activator, partial curve, poor fit] | – |
| COC(=O)c1nn(-c2ccc(OC)cc2)c(=O)cc1Oc1cccc(Cl)c1 | inconclusive: 2.31 µM [inhibitor, partial curve, poor fit] | – |
| O=[N+]([O-])c1cc(-c2n(-c3ccccn3)c3ccccc3[n+]2-c2ccccn2)ccc1Cl | inconclusive: 4.47 µM [inhibitor, partial curve, poor fit] | – |
| COc1cc(C(=O)Nc2cc(C)ccn2)ccc1OCC(=O)N1CCOCC1 | inconclusive: 35.5 µM [activator, single point] | – |
| CCCCOC(=O)Oc1ccc2c(=O)c(Oc3cccc(C)c3)coc2c1 | inconclusive: 2.51 µM [activator, full curve, poor fit] | – |
| Nc1nc(N)nc(-c2ccccc2O)n1 | inconclusive: 6.31 µM [activator, partial curve, poor fit] | – |
| Cc1ccc2nc(SCC(=O)Nc3cccc(S(=O)(=O)N(C)C)c3)[nH]c2c1 | inconclusive: 0.794 µM [inhibitor, full curve, poor fit] | – |
| O=C(c1ccco1)N1CCN(C(c2ccccc2Cl)c2nnnn2Cc2cccs2)CC1 (stereo unspecified) | inconclusive: 35.5 µM [inhibitor, single point] | – |
| CCOC(=O)c1cnc(-n2[nH]c(C)cc2=O)[nH]c1=O | inactive | – |
| CN=C1NN=C(c2cc(C)n(-c3c(C)n(C)n(-c4ccccc4)c3=O)c2C)CS1 | inconclusive: 29.1 µM [inhibitor, partial curve, poor fit] | – |
| COC(=O)C1=C(c2ccccc2)c2ccccc2S(=O)(=O)N1CC(=O)Nc1ccc(OC)cc1OC | inconclusive: 35.5 µM [inhibitor, single point] | – |
| CCOC(=O)c1nnc2ccnn2c1N | inconclusive: 2.06 µM [activator, partial curve] | – |
| COc1ccc(C2=CC(c3ccc(Cl)cc3)n3cnnc3N2)cc1OC (stereo unspecified) | inconclusive: 35.5 µM [inhibitor, single point] | – |

Some of the entries above, set out differently.
Cc1ccc(CNC(=O)CN2CCN(Cc3ccc(F)cc3)C2=O)cc1
  Potency: inactive
CCOC(=O)c1cnc(-n2[nH]c(C)cc2=O)[nH]c1=O
  Potency: inactive
CN=C1NN=C(c2cc(C)n(-c3c(C)n(C)n(-c4ccccc4)c3=O)c2C)CS1
  Potency: inconclusive: 29.1 µM [inhibitor, partial curve, poor fit]

(cont.)

| Structure (SMILES) | Potency | activity change, negative = inhibition |
| --- | --- | --- |
| COc1ccccc1/C=C/C(=O)Nc1ccc2c(c1)CCC2 | inconclusive: 0.282 µM [activator, full curve, poor fit] | – |
| CCn1c(C)nc2cc(C(=O)NNC(=S)Nc3ccccc3Cl)ccc21 | inconclusive: 2 µM [activator, partial curve] | – |
| N#Cc1cc(-c2ccccc2)nnc1Sc1ccc(F)cc1 | inconclusive: 0.178 µM [activator, full curve, poor fit] | – |
| COc1ccc(C2=Nn3c(nnc3-c3cccnc3)SC2)cc1 | inconclusive: 29.1 µM [inhibitor, single point] | – |
| CCOc1ccc(NC(=O)CN2C(C(=O)OC)=C(c3ccccc3)c3cc(Cl)ccc3S2(=O)=O)cc1 | inactive | – |
| Cc1ccc(Nc2nc(-c3ccc(S(=O)(=O)N4CCOCC4)cc3)cs2)cc1 | inconclusive: 25.9 µM [inhibitor, partial curve, poor fit] | – |
| OCc1ccccc1N=Cc1cccnc1 | inconclusive: 35.5 µM [inhibitor, single point] | – |
| CCOC(=O)c1c(NC(=O)c2cc(=O)c3ccc(C)cc3o2)sc(C)c1C | inactive | – |
| COCCNc1nc2c(c(=O)n(C)c(=O)n2C)n1Cc1cccc(C)c1 | inconclusive: 14.6 µM [inhibitor, partial curve] | – |
| COc1ccc(-c2nnc(N3CCC(C)CC3)c3ccccc23)cc1 | inactive | – |
| N#Cc1ccc(C(=O)OCC(=O)NC(=O)NCc2ccccc2)cc1 | inactive | – |
| CC(C)C(=O)NNC(=O)c1csc(CS(=O)(=O)c2ccc(Cl)cc2)n1 | inconclusive: 0.316 µM [inhibitor, partial curve, poor fit] | – |
| Cc1ccc(C)c(NC(=O)CN(C)C(=O)C2CCN(S(=O)(=O)c3ccc4c(c3)OCCO4)CC2)c1 | inconclusive: 35.5 µM [activator, single point] | – |
| COc1cc(C(=O)N(C)C2CCCN(Cc3ccccc3F)C2)cc(OC)c1OC (stereo unspecified) | inactive | – |
| Cc1ccc(C(=O)OCC(=O)NCc2cccs2)cc1S(=O)(=O)N1CCOCC1 | inconclusive: 6.31 µM [inhibitor, single point] | – |
| COc1ccccc1N1CCN(C(=O)c2cn(C)c3ccc(S(=O)(=O)N4CCOCC4)cc3c2=O)CC1 | inconclusive: 0.562 µM [activator, partial curve, poor fit] | – |
| COc1cc(/C=C2\SC(=S)N(Nc3ncc(C(F)(F)F)cc3Cl)C2=O)cc(OC)c1OC | inactive | – |
| C/C(=N\NC(=O)Cc1cccn1C)c1ccc2ccccc2c1 | inconclusive: 6.31 µM [inhibitor, single point] | – |
| O=c1oc2ccccc2n1Cc1cccc(C(F)(F)F)c1 | inconclusive: 5.62 µM [inhibitor, single point] | – |
| O=C(COc1ccc(Cl)cc1)Nc1nc(-c2ccncc2)cs1 | inactive | – |
